{"source": "PubChem BioAssay AID1508597, Cure First | 2020", "screen": "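Survival screen with siRNA in ovarian cancer cells derived from patients, with or without rucaparib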 (primary screen)", "system": "human ovarian carcinoma lines grown from tumours: OCI-P5x (papillary serous) and OCI-C5x (clear cell)", "reagents": "siRNA pool against human genes, 1.25 pmol siRNA per well", "time to read-out": "72 h or 96 h, depending on the cell culture", "challenge": "rucaparib 20 µM (about IC30) or vehicle, present until read-out", "rucaparib or vehicle": "Vehicle", "cell line": "OCI-C5x (clear cell)", "measured": "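Luminescent ATP-based viability assay read 72 or 96 h after transfection, depending on culture, given as normalised percent viability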", "reading the numbers": "viability, normalised: higher = more viable cells remaining", "rule for the call": "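a well counts as a hit if its normalised viability is under 80 percent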", "calls": "active = viability under 80%; inactive = viability 80% or more", "note": "Shown is a random part of the about 2,100 reagents, in one setting of the screen. 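Calls flag viability under 80% in either arm, not effects specific to rucaparib; the reference for percent is not stated.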 Not given: the 100% reference."}
{"Target gene": "ATXN7L3 (ataxin 7 like 3)", "technical replicate": "1", "viability, normalised (%)": 22.9, "call": "active"}
{"Target gene": "ATXN7L3 (ataxin 7 like 3)", "technical replicate": "2", "viability, normalised (%)": 40.1, "call": "active"}
{"Target gene": "ATXN7L3 (ataxin 7 like 3)", "technical replicate": "3", "viability, normalised (%)": 31.3, "call": "active"}
{"Target gene": "RALB (RAS like proto-oncogene B)", "technical replicate": "1", "viability, normalised (%)": 92.4, "call": "inactive"}
{"Target gene": "RALB (RAS like proto-oncogene B)", "technical replicate": "2", "viability, normalised (%)": 64.3, "call": "active"}
{"Target gene": "RALB (RAS like proto-oncogene B)", "technical replicate": "3", "viability, normalised (%)": 48.3, "call": "active"}
{"Target gene": "NEK9 (NIMA related kinase 9)", "technical replicate": "1", "viability, normalised (%)": 46.8, "call": "active"}
{"Target gene": "NEK9 (NIMA related kinase 9)", "technical replicate": "2", "viability, normalised (%)": 50.2, "call": "active"}
{"Target gene": "NEK9 (NIMA related kinase 9)", "technical replicate": "3", "viability, normalised (%)": 64.6, "call": "active"}
{"Target gene": "MCM2 (minichromosome maintenance complex component 2)", "technical replicate": "1", "viability, normalised (%)": 52, "call": "active"}
{"Target gene": "MCM2 (minichromosome maintenance complex component 2)", "technical replicate": "2", "viability, normalised (%)": 55.5, "call": "active"}
{"Target gene": "MCM2 (minichromosome maintenance complex component 2)", "technical replicate": "3", "viability, normalised (%)": 49.9, "call": "active"}

The list goes on; the last 2 above are carried over.
{"Target gene": "MCM2 (minichromosome maintenance complex component 2)", "technical replicate": "2", "viability, normalised (%)": 55.5, "call": "active"}
{"Target gene": "MCM2 (minichromosome maintenance complex component 2)", "technical replicate": "3", "viability, normalised (%)": 49.9, "call": "active"}
{"Target gene": "ACTR6 (actin related protein 6)", "technical replicate": "1", "viability, normalised (%)": 41.9, "call": "active"}
{"Target gene": "ACTR6 (actin related protein 6)", "technical replicate": "2", "viability, normalised (%)": 30.3, "call": "active"}
{"Target gene": "ACTR6 (actin related protein 6)", "technical replicate": "3", "viability, normalised (%)": 40.4, "call": "active"}
{"Target gene": "EIF5A2 (eukaryotic translation initiation factor 5A2)", "technical replicate": "1", "viability, normalised (%)": 77.9, "call": "active"}
{"Target gene": "EIF5A2 (eukaryotic translation initiation factor 5A2)", "technical replicate": "2", "viability, normalised (%)": 83.9, "call": "inactive"}
{"Target gene": "EIF5A2 (eukaryotic translation initiation factor 5A2)", "technical replicate": "3", "viability, normalised (%)": 69.9, "call": "active"}
{"Target gene": "SUPT5H (SPT5 homolog, DSIF elongation factor subunit)", "technical replicate": "1", "viability, normalised (%)": 29.8, "call": "active"}
{"Target gene": "SUPT5H (SPT5 homolog, DSIF elongation factor subunit)", "technical replicate": "2", "viability, normalised (%)": 36.1, "call": "active"}
{"Target gene": "SUPT5H (SPT5 homolog, DSIF elongation factor subunit)", "technical replicate": "3", "viability, normalised (%)": 31.4, "call": "active"}
